Assay results: patent US20070054846A1, “Bcl-w structure and uses therefor” (priority 2002, published 2007)

B1: FLAG Bcl-w (full-length, expressed in 293T cells) (protein, not shown: small tags and cut ends)
chain: MATPASAPDTRALVADFVGYKLRQKGYVCGAGPGEGPAADPLHQAMRAAGDEFETRFRRTFSDLAAQLHVTPGSAQQRFTQVSDELFQGGPNWGRLVAFFVFGAALCAESVNKEMEPLVGQVQEWMVAYLETRLADWIHSSGGWAEFTALYGDGALEEARRLREGNWASVRTVLTGAVALGALVTVGAFFASK
B2: FLAG Bcl-wΔC23 (protein, not shown: small tags and cut ends)
chain: MATPASAPDTRALVADFVGYKLRQKGYVCGAGPGEGPAADPLHQAMRAAGDEFETRFRRTFSDLAAQLHVTPGSAQQRFTQVSDELFQGGPNWGRLVAFFVFGAALCAESVNKEMEPLVGQVQEWMVAYLETRLADWIHSSGGWAEFTALYGDGALEEARRLREGNWASV
B3: FLAG Bcl-wΔC29 (protein, not shown: small tags and cut ends)
chain: MATPASAPDTRALVADFVGYKLRQKGYVCGAGPGEGPAADPLHQAMRAAGDEFETRFRRTFSDLAAQLHVTPGSAQQRFTQVSDELFQGGPNWGRLVAFFVFGAALCAESVNKEMEPLVGQVQEWMVAYLETRLADWIHSSGGWAEFTALYGDGALEEARRLRE

Target: BH3
Experiment: summary table; neither the assay nor the BH3-only partner is named on the sheet

| Binder | binding |
| --- | --- |
| B1 | binds |
| B2 | binds |
| B3 | binds |

These are yes or no findings as the source states them, for the method shown. Binding can be weak; no strength is given. Tags and fused reporters may be left off the sequences shown.
